Measured values from US20230047208A1, “RNA Splicing Modulation” (The General Hospital Corporation, priority 2020, published 2023).
Further values from the same series stand in other lists.

System: wildtype (WT) human fibroblast cell lines
Experiment: Transcriptome-wide splicing by RNA sequencing (RNASeq), exon triplet PSI change;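 for Effect: six WT fibroblast lines treated seven days versus DMSO vehicle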;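 for T-PSI: T-PSI is average treated PSI after seven days of treatment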
Assay type: cell-based
Parameters: key to Effect: Exclusion; Inclusion; Unchanged
Details: seven days
From the text: FIG. 2A provides a representation of an exon triplet. Exon U is upstream of Exon X, which is upstream of Exon D. R1, R2 and R3 represent RNA sequencing (RNASeq) reads spanning the regions between two adjacent exons. UI1, I1X, XI2 and I2D are four regions flanking the four splice sites of the exon-triplet. Each flanking region consists of 25 exonic base pairs and 75 intronic base pairs.
FIG. 2B provides a volcano plot showing the ψ (PSI: Percent Spliced-In) changes in splicing after treatment with Compound (I). Each dot represents one of the 161,097 expressed exon triplets in human fibroblasts. The x axis represents the ψ changes after treatment and the y axis represents the False Discovery Rate (FDR) (log 10 transformed). […] The horizontal dashed line indicates an FDR of 0.1. The dots on the right side of the right vertical dashed line and above the horizontal dashed line represent the exon-triplets with an increase for Exon X inclusion (Δψ≥0.1 and FDR<0.1) while the dots on left side of the left vertical dashed line and above the horizontal dashed line represent an increase for Exon X exclusion (Δψ≤−0.1 and FDR<0.1). Black dots in-between the two vertical dashed lines represent exon-triplets unchanged from the treatment.
In some aspects, analysis is performed on data derived from the assay to measure the magnitude of splicing to determine the amount of exons spliced into an mRNA transcript that is produced in the presence of Compound (I) relative to the amount in the absence of Compound (I) or presence of a negative control. In a preferred aspect, the method utilized is calculation of change in Percent Spliced In (ΔPSI). […] The ΔPSI value is derived from the formula: […]
The values for “a” and “b” represent the number of reads supporting the probability for potential inclusion or exclusion of an exon in an RNA transcript. The “a” value is derived from the number of reads within an exon triplet covering, in 5′ to 3′ order: the last few bases (>1 nucleotide) of an upstream exon operably linked to the first few bases (>1 nucleotide) of a middle exon. The “b” value is derived from the number of reads within an exon triplet covering, in 5′ to 3′ order: the last few bases (>1 nucleotide) of the middle exon operably linked to the first few bases (>1 nucleotide) of a downstream exon. The number of reads will indicate whether the splice junction of a middle exon has been identified as potentially having a CNN Motif(s) by the CNN Model described herein, wherein the inclusion or exclusion of the middle exon may be modulated in the presence of Compound (I) to produce one or more mature RNA isoforms from the gene transcript. The value for “c” represents the number of reads supporting the exclusion of the middle exon.
The effect on splicing modulation and corresponding splice differences toward exon inclusion or exclusion was determined by counting the RNASeq reads covering two splice junctions of exon triplets (three consecutive exons: Exon U, Exon X, Exon D) and the corresponding intervening introns, then comparing the change in Percent Spliced In (ΔPSI or Δψ) of the middle exon (Exon X) after treatment (as shown in FIG. 2A)^52,53. 934 exon triplets were identified showing differential middle exon inclusion or exclusion in response to Compound (I) treatment. Of these, 254 were exon inclusion events (Δψ≥0.1 and FDR<0.1) and 680 were exon exclusion events (Δψ≤−0.1 and FDR<0.1) (as shown in FIG. 2B). […] The splicing results were evaluated by RT-PCR in independent replicate experiments, confirming all the calculated Δψ values. […]

[1] = SH3D19 Exon 152065372-152065440
[2] = SLC9B2 Exon 103949904-103950040
[3] = SLC15A4 Exon 129294488-129294598
[4] = SLC22A17 Exon 23816723-23816940
[5] = SLC25A17 Exon 41188529-41188680
[6] = SLC25A17 Exon 41190518-41190584
[7] = SLC25A32 Exon 104417004-104417089
[8] = SLC25A36 Exon 140685776-140685878
[9] = SLC25A36 Exon 140685842-140685878
[10] = SLC35A3 Exon 100440527-100440625
[11] = SLC37A3 Exon 140045669-140045770

Clc1nc(NCc2ccncc2)c2cc[nH]c2n1 [Compound (I), 2-chloro-N-(pyridin-4-ylmethyl)-7H-pyrrolo[2,3-d]pyrimidin-4-amine]
T-PSI (SETD5 Exon 9476274-9476314): 0.138
ΔPSI (SETD5 Exon 9476274-9476314): −0.190
Effect (SETX Exon 135144790-135144876): Inc
T-PSI (SETX Exon 135144790-135144876): 0.466
ΔPSI (SETX Exon 135144790-135144876): 0.150
Effect (SEZ6L2 Exon 29884026-29884064): Unc
T-PSI (SEZ6L2 Exon 29884026-29884064): 0.582
ΔPSI (SEZ6L2 Exon 29884026-29884064): 0.010
Effect (SFXN4 Exon 120920567-120920593): Exc
T-PSI (SFXN4 Exon 120920567-120920593): 0.812
ΔPSI (SFXN4 Exon 120920567-120920593): −0.188
Effect (SGSM2 Exon 2270565-2270699): Unc
T-PSI (SGSM2 Exon 2270565-2270699): 0.317
ΔPSI (SGSM2 Exon 2270565-2270699): 0.005
Effect (SGSM3 Exon 40797597-40797679): Exc
T-PSI (SGSM3 Exon 40797597-40797679): 0.494
ΔPSI (SGSM3 Exon 40797597-40797679): −0.290
Effect [1]: Inc
T-PSI [1]: 0.620
ΔPSI [1]: 0.143
Effect (SHMT2 Exon 57625264-57625343): Exc
T-PSI (SHMT2 Exon 57625264-57625343): 0.754
ΔPSI (SHMT2 Exon 57625264-57625343): −0.138
Effect (SIKE1 Exon 115322731-115322836): Unc
T-PSI (SIKE1 Exon 115322731-115322836): 0.891
ΔPSI (SIKE1 Exon 115322731-115322836): −0.005
Effect (SIPA1L1 Exon 71867511-71867635): Exc
T-PSI (SIPA1L1 Exon 71867511-71867635): 0.000
ΔPSI (SIPA1L1 Exon 71867511-71867635): −0.241
Effect (SIPA1L1 Exon 71880665-71880731): Inc
T-PSI (SIPA1L1 Exon 71880665-71880731): 0.986
ΔPSI (SIPA1L1 Exon 71880665-71880731): 0.377
Effect (SLAIN2 Exon 48396593-48396670): Unc
T-PSI (SLAIN2 Exon 48396593-48396670): 0.717
ΔPSI (SLAIN2 Exon 48396593-48396670): −0.009
Effect (SLC4A7 Exon 27450847-27451021): Exc
T-PSI (SLC4A7 Exon 27450847-27451021): 0.378
ΔPSI (SLC4A7 Exon 27450847-27451021): −0.426
Effect (SLC5A6 Exon 27429351-27429402): Exc
T-PSI (SLC5A6 Exon 27429351-27429402): 0.763
ΔPSI (SLC5A6 Exon 27429351-27429402): −0.174
Effect (SLC7A6 Exon 68307721-68307807): Exc
T-PSI (SLC7A6 Exon 68307721-68307807): 0.312
ΔPSI (SLC7A6 Exon 68307721-68307807): −0.230
Effect (SLC7A6 Exon 68307725-68307807): Exc
T-PSI (SLC7A6 Exon 68307725-68307807): 0.224
ΔPSI (SLC7A6 Exon 68307725-68307807): −0.205
Effect [2]: Exc
T-PSI [2]: 0.553
ΔPSI [2]: −0.322
Effect [3]: Inc
T-PSI [3]: 0.982
ΔPSI [3]: 0.113
Effect [4]: Exc
T-PSI [4]: 0.684
ΔPSI [4]: −0.171
Effect [5]: Exc
T-PSI [5]: 0.772
ΔPSI [5]: −0.197
Effect [6]: Exc
T-PSI [6]: 0.769
ΔPSI [6]: −0.197
Effect [7]: Exc
T-PSI [7]: 0.801
ΔPSI [7]: −0.134
Effect [8]: Exc
T-PSI [8]: 0.096
ΔPSI [8]: −0.230
Effect [9]: Exc
T-PSI [9]: 0.073
ΔPSI [9]: −0.201
Effect (SLC30A6 Exon 32422413-32422461): Unc
T-PSI (SLC30A6 Exon 32422413-32422461): 0.790
ΔPSI (SLC30A6 Exon 32422413-32422461): 0.009
Effect (SLC35A1 Exon 88187080-88187257): Exc
T-PSI (SLC35A1 Exon 88187080-88187257): 0.760
ΔPSI (SLC35A1 Exon 88187080-88187257): −0.194
Effect [10]: Inc
T-PSI [10]: 0.613
ΔPSI [10]: 0.237
Effect (SLC35D2 Exon 99084280-99084362): Exc
T-PSI (SLC35D2 Exon 99084280-99084362): 0.841
ΔPSI (SLC35D2 Exon 99084280-99084362): −0.136
Effect [11]: Exc
T-PSI [11]: 0.548
ΔPSI [11]: −0.241
Effect (SLC38A2 Exon 46764295-46764410): Exc
T-PSI (SLC38A2 Exon 46764295-46764410): 0.748
ΔPSI (SLC38A2 Exon 46764295-46764410): −0.154
Effect (SLC38A6 Exon 61510168-61510221): Exc
T-PSI (SLC38A6 Exon 61510168-61510221): 0.653
ΔPSI (SLC38A6 Exon 61510168-61510221): −0.212
Effect (SLC38A6 Exon 61514869-61515015): Inc
T-PSI (SLC38A6 Exon 61514869-61515015): 0.190
ΔPSI (SLC38A6 Exon 61514869-61515015): 0.157
Effect (SLC38A6 Exon 61517230-61517354): Exc
T-PSI (SLC38A6 Exon 61517230-61517354): 0.717
ΔPSI (SLC38A6 Exon 61517230-61517354): −0.271
Effect (SLC38A9 Exon 54998567-54998722): Unc
T-PSI (SLC38A9 Exon 54998567-54998722): 0.116
ΔPSI (SLC38A9 Exon 54998567-54998722): −0.009
Effect (SLC39A9 Exon 69908786-69908983): Unc
T-PSI (SLC39A9 Exon 69908786-69908983): 0.883
ΔPSI (SLC39A9 Exon 69908786-69908983): 0.004
Effect (SLFN11 Exon 33693966-33694062): Unc
T-PSI (SLFN11 Exon 33693966-33694062): 0.836
ΔPSI (SLFN11 Exon 33693966-33694062): −0.007
Effect (SLFN11 Exon 33693966-33694082): Unc
T-PSI (SLFN11 Exon 33693966-33694082): 0.836
ΔPSI (SLFN11 Exon 33693966-33694082): −0.006
Effect (SLIT2 Exon 20550111-20550182): Exc
T-PSI (SLIT2 Exon 20550111-20550182): 0.748
ΔPSI (SLIT2 Exon 20550111-20550182): −0.163
Effect (SLMAP Exon 57857363-57857425): Exc
T-PSI (SLMAP Exon 57857363-57857425): 0.339
ΔPSI (SLMAP Exon 57857363-57857425): −0.267
